# Laboratory results: patent US20120142634A1, “Method of Treating Cancer with a Combination of a Proteasome Inhibitor and Salubrinal” (MOUNT SINAI SCHOOL OF MEDICINE OF NEW YORK UNIVERSITY, priority 2008, published 2012)
# Some entries share one result that the patent states for a list of compounds.
# Assays:
# Type in all cases: cell-based
# RPMI8226 cells [1] = test: CFSE label retention assay; conditions: surviving RPMI8226 cells, 72 hours after washout; MG-132 400 nM or Bortezomib 4 nM
# RPMI8226 cells [2] = test: Viability assay (trypan blue); conditions: proteasome inhibitor alone, 24 hours
# Description: Reagents, antibodies, RT-PCR, cell lines and tissue culture, plasmids. Proteasome inhibitor (MG-132, Velcade®; each commercially available) treatments were performed using 400 nM MG-132 or 4 nM Bortezomib (Velcade®) for 24 hours. The drug was then removed by serial washes with PBS and the remaining viable cells were replated. […] RPMI8226 cells contain a c-MYC insertion on t(16;22)(q32;q11):der16; U266B1 cells (t(11;14)) were from ATCC. Cells were cultured according to ATCC recommendations. Antibodies (identified by the antigen specifically recognized): p-Rb, Rb, p-eIF2α, eIF2α, GCN2, p-GCN2, p-PKR and PKR from Cell Signaling (Beverly, Mass.), p-PERK and PERK from Santa Cruz Biotechnology (Santa Cruz, Calif.), BiP from BD (San Jose, Calif.), GAPDH from Calbiochem (Beverly, Mass.), and β-tubulin from Abcam (Cambridge, Mass.). Total RNA was extracted using Trizol (Invitrogen, Carlsbad, Calif.). Primer sequences were published previously (Sequeira, et al., PLoS ONE 2(7):e615 2007, incorporated herein by reference in its entirety). The pCLBabe-eIF2αS51D plasmid was provided by Dr. David Schubert (Salk Institute, La Jolla, Calif.) and can be constructed using known techniques. Transfection of RPMI8226 cells was performed using Amaxa technology according to the manufacturer's instructions (Gaithersburg, Md.).
# (§1) Viability assay, Immunoblotting. Cell viability was assessed using trypan blue. […]
# U266B1 cells = test: Viability assay (trypan blue); conditions: proteasome inhibitor alone, 24 hours
# Description: Reagents, antibodies, RT-PCR, cell lines and tissue culture, plasmids. Proteasome inhibitor (MG-132, Velcade®; each commercially available) treatments were performed using 400 nM MG-132 or 4 nM Bortezomib (Velcade®) for 24 hours. The drug was then removed by serial washes with PBS and the remaining viable cells were replated. Salubrinal treatments were performed using the drug at 5 or 10 μg/ml, as indicated, for 24 hours. RPMI8226 cells contain a c-MYC insertion on t(16;22)(q32;q11):der16; U266B1 cells (t(11;14)) were from ATCC. Cells were cultured according to ATCC recommendations. Antibodies (identified by the antigen specifically recognized): p-Rb, Rb, p-eIF2α, eIF2α, GCN2, p-GCN2, p-PKR and PKR from Cell Signaling (Beverly, Mass.), p-PERK and PERK from Santa Cruz Biotechnology (Santa Cruz, Calif.), BiP from BD (San Jose, Calif.), GAPDH from Calbiochem (Beverly, Mass.), and β-tubulin from Abcam (Cambridge, Mass.). Total RNA was extracted using Trizol (Invitrogen, Carlsbad, Calif.). Primer sequences were published previously (Sequeira, et al., PLoS ONE 2(7):e615 2007, incorporated herein by reference in its entirety). The pCLBabe-eIF2αS51D plasmid was provided by Dr. David Schubert (Salk Institute, La Jolla, Calif.) and can be constructed using known techniques. […]
# as §1
smiles,measurement,setting,value
CC(C)C[C@H](NC(=O)[C@H](Cc1ccccc1)NC(=O)c1cnccn1)B(O)O [Bortezomib],increase in the percentage of CFSE-positive cells,RPMI8226 cells [1],4-7 fold
same,cell death,RPMI8226 cells [2],40-50%
same,cell death,U266B1 cells,40-50%
